# This is one part of the list.
# B1: S100A12 (Homo sapiens), P80511 (protein)
# chain: MTKLEEHLEGIVNIFHQYSVRKGHFDTLSKGELKQLLTKELANTIKNIKDKAVIDEIFQGLDANQDEQVDFQEFISLVAIALKAAHYHTHKE
# Key:
# Assay in all cases: glycan array binding signal (z-score within array); higher = stronger binding
# Details in all cases: glycan notation: IUPAC condensed, linker removed
# Fuc(a1-2)Gal = target: Fuc(a1-2)Gal
# Summary of the method: (§1)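 Glycan array binding is given as a within-array Z-score, which can be read as non-binding when negative. The arrays, 3228 of them, came from the Consortium for Functional Glycomics database and were retained only where the protein sequence was available. Z-scores were averaged across arrays of the same protein sequence at different concentrations or buffers and across linkers.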
# Fuc(a1-2)Gal(b1-3)GalNAc = target: Fuc(a1-2)Gal(b1-3)GalNAc
# Summary of the method: as §1
# [1] = target: Fuc(a1-2)Gal(b1-3)GalNAc(b1-3)Gal
# Summary of the method: as §1
# [2] = target: Fuc(a1-2)Gal(b1-3)GalNAc(b1-3)Gal(a1-4)Gal(b1-4)Glc
# Summary of the method: as §1
# [3] = target: Fuc(a1-2)Gal(b1-3)GalNAc(b1-3)Gal(b1-4)Glc
# Summary of the method: as §1
# [4] = target: Fuc(a1-2)Gal(b1-3)GalNAc(b1-4)[Neu5Ac(a2-3)]Gal(b1-4)Glc
# Summary of the method: as §1
# Fuc(a1-2)Gal(b1-3)GlcNAc = target: Fuc(a1-2)Gal(b1-3)GlcNAc
# Summary of the method: as §1
# [5] = target: Fuc(a1-2)Gal(b1-3)GlcNAc(b1-3)Gal(b1-4)Glc
# Summary of the method: as §1
# [6] = target: Fuc(a1-2)Gal(b1-3)[Fuc(a1-4)]GlcNAc
# Summary of the method: as §1
# Fuc(a1-2)Gal(b1-4)Glc = target: Fuc(a1-2)Gal(b1-4)Glc
# Summary of the method: as §1
# Fuc(a1-2)Gal(b1-4)Glc6S = target: Fuc(a1-2)Gal(b1-4)Glc6S
# Summary of the method: as §1
# Fuc(a1-2)Gal(b1-4)GlcNAc = target: Fuc(a1-2)Gal(b1-4)GlcNAc
# Summary of the method: as §1
# [7] = target: Fuc(a1-2)Gal(b1-4)GlcNAc(b1-3)Gal(b1-4)GlcNAc
# Summary of the method: as §1
# [8] = target: Fuc(a1-2)Gal(b1-4)GlcNAc(b1-3)Gal(b1-4)GlcNAc(b1-3)Gal(b1-4)GlcNAc
# Summary of the method: as §1
# [9] = target: Fuc(a1-2)Gal(b1-4)GlcNAc6S
# Summary of the method: as §1
# [10] = target: Fuc(a1-2)Gal(b1-4)[Fuc(a1-3)]GalNAc(b1-3)Gal(b1-4)[Fuc(a1-3)]GlcNAc
# Summary of the method: as §1
# [11] = target: Fuc(a1-2)Gal(b1-4)[Fuc(a1-3)]GalNAc(b1-3)Gal(b1-4)[Fuc(a1-3)]GlcNAc(b1-3)Gal(b1-4)[Fuc(a1-3)]GalNAc
# Summary of the method: as §1
# [12] = target: Fuc(a1-2)Gal(b1-4)[Fuc(a1-3)]GlcNAc
# Summary of the method: as §1
# [13] = target: Fuc(a1-2)Gal(b1-4)[Fuc(a1-3)]GlcNAc(b1-3)Gal(b1-4)[Fuc(a1-3)]GlcNAc
# Summary of the method: as §1
# [14] = target: Fuc(a1-2)Gal(b1-4)[Fuc(a1-3)]GlcNAc(b1-3)Gal(b1-4)[Fuc(a1-3)]GlcNAc(b1-3)Gal(b1-4)[Fuc(a1-3)]GlcNAc
# Summary of the method: as §1
# Fuc(a1-2)Gal6S(b1-4)Glc = target: Fuc(a1-2)Gal6S(b1-4)Glc
# Summary of the method: as §1
# [15] = target: Fuc(a1-2)Gal6S(b1-4)Glc6S
# Summary of the method: as §1
# [16] = target: Fuc(a1-2)Gal6S(b1-4)GlcNAc
# Summary of the method: as §1
# Fuc(a1-2)GlcNAc = target: Fuc(a1-2)GlcNAc
# Summary of the method: as §1
# Fuc(a1-2)[Gal(a1-3)]Gal = target: Fuc(a1-2)[Gal(a1-3)]Gal
# Summary of the method: as §1
# [17] = target: Fuc(a1-2)[Gal(a1-3)]Gal(b1-3)GlcNAc
# Summary of the method: as §1
# [18] = target: Fuc(a1-2)[Gal(a1-3)]Gal(b1-4)Glc
# Summary of the method: as §1
# [19] = target: Fuc(a1-2)[Gal(a1-3)]Gal(b1-4)GlcNAc
# Summary of the method: as §1
# [20] = target: Fuc(a1-2)[Gal(a1-3)]Gal(b1-4)[Fuc(a1-3)]GlcNAc
# Summary of the method: as §1
# [21] = target: Fuc(a1-2)[Gal(a1-4)]Gal(b1-4)GalNAc
# Summary of the method: as §1
# [22] = target: Fuc(a1-2)[Gal(a1-4)]Gal(b1-4)GlcNAc
# Summary of the method: as §1
# [23] = target: Fuc(a1-2)[GalNAc(a1-3)]Gal
# Summary of the method: as §1
# [24] = target: Fuc(a1-2)[GalNAc(a1-3)]Gal(b1-3)GlcNAc
# Summary of the method: as §1
# [25] = target: Fuc(a1-2)[GalNAc(a1-3)]Gal(b1-4)Glc
# Summary of the method: as §1
# [26] = target: Fuc(a1-2)[GalNAc(a1-3)]Gal(b1-4)GlcNAc
# Summary of the method: as §1
# [27] = target: Fuc(a1-2)[GalNAc(a1-3)]Gal(b1-4)[Fuc(a1-3)]GlcNAc
# Summary of the method: as §1
# [28] = target: Fuc(a1-2)[GalNAc(a1-4)]Gal(b1-4)GlcNAc
# Summary of the method: as §1
# [29] = target: Fuc(a1-2)[GalNAc(b1-3)]Gal
# Summary of the method: as §1
# Fuc(a1-3)GlcNAc = target: Fuc(a1-3)GlcNAc
# Summary of the method: as §1
# [30] = target: Fuc(a1-3)[Gal(b1-4)]Glc6S
# Summary of the method: as §1
# [31] = target: Fuc(a1-3)[Gal(b1-4)]GlcNAc
# Summary of the method: as §1
# [32] = target: Fuc(a1-3)[Gal(b1-4)]GlcNAc(b1-3)Gal(b1-3)[Fuc(a1-4)]GlcNAc
# Summary of the method: as §1
# [33] = target: Fuc(a1-3)[Gal(b1-4)]GlcNAc(b1-4)Gal(b1-4)[Fuc(a1-3)]GlcNAc
# Summary of the method: as §1
# [34] = target: Fuc(a1-3)[Gal(b1-4)]GlcNAc(b1-4)Gal(b1-4)[Fuc(a1-3)]GlcNAc(b1-4)Gal(b1-4)[Fuc(a1-3)]GlcNAc
# Summary of the method: as §1
# [35] = target: Fuc(a1-3)[Gal(b1-4)]GlcNAc6S
# Summary of the method: as §1
binder,measurement,setting,value
B1,glycan array binding signal (z-score),Fuc(a1-2)Gal,-0.19
same,glycan array binding signal (z-score),Fuc(a1-2)Gal(b1-3)GalNAc,-0.479
same,glycan array binding signal (z-score),[1],1.87
same,glycan array binding signal (z-score),[2],-0.217
same,glycan array binding signal (z-score),[3],-0.391
same,glycan array binding signal (z-score),[4],-0.259
same,glycan array binding signal (z-score),Fuc(a1-2)Gal(b1-3)GlcNAc,-0.69
same,glycan array binding signal (z-score),[5],-0.839
same,glycan array binding signal (z-score),[6],-0.697
same,glycan array binding signal (z-score),Fuc(a1-2)Gal(b1-4)Glc,-0.842
same,glycan array binding signal (z-score),Fuc(a1-2)Gal(b1-4)Glc6S,-0.59
same,glycan array binding signal (z-score),Fuc(a1-2)Gal(b1-4)GlcNAc,-0.748
same,glycan array binding signal (z-score),[7],-0.73
same,glycan array binding signal (z-score),[8],0.096
same,glycan array binding signal (z-score),[9],-0.51
same,glycan array binding signal (z-score),[10],-0.48
same,glycan array binding signal (z-score),[11],-0.595
same,glycan array binding signal (z-score),[12],-0.599
same,glycan array binding signal (z-score),[13],-0.821
same,glycan array binding signal (z-score),[14],0.343
same,glycan array binding signal (z-score),Fuc(a1-2)Gal6S(b1-4)Glc,-0.521
same,glycan array binding signal (z-score),[15],0.472
same,glycan array binding signal (z-score),[16],-0.347
same,glycan array binding signal (z-score),Fuc(a1-2)GlcNAc,-0.615
same,glycan array binding signal (z-score),Fuc(a1-2)[Gal(a1-3)]Gal,-0.758
same,glycan array binding signal (z-score),[17],-0.548
same,glycan array binding signal (z-score),[18],-0.262
same,glycan array binding signal (z-score),[19],-0.418
same,glycan array binding signal (z-score),[20],0.104
same,glycan array binding signal (z-score),[21],-0.138
same,glycan array binding signal (z-score),[22],-0.056
same,glycan array binding signal (z-score),[23],-0.376
same,glycan array binding signal (z-score),[24],-0.554
same,glycan array binding signal (z-score),[25],-0.323
same,glycan array binding signal (z-score),[26],-0.513
same,glycan array binding signal (z-score),[27],-0.154
same,glycan array binding signal (z-score),[28],-0.766
same,glycan array binding signal (z-score),[29],-1.17
same,glycan array binding signal (z-score),Fuc(a1-3)GlcNAc,-0.912
same,glycan array binding signal (z-score),[30],-0.027
same,glycan array binding signal (z-score),[31],-0.769
same,glycan array binding signal (z-score),[32],-0.592
same,glycan array binding signal (z-score),[33],0.602
same,glycan array binding signal (z-score),[34],-0.612
same,glycan array binding signal (z-score),[35],-0.53

# A different layout for part of the listing above:
binder | measurement | setting | value
B1 | glycan array binding signal (z-score) | [1] | 1.87
same | glycan array binding signal (z-score) | [2] | -0.217
same | glycan array binding signal (z-score) | [3] | -0.391

# From the supplement of paper PMC8728848
